# Values from PubChem BioAssay AID1259281 (Sanger Institute, 2017).
# Purpose: 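Screen kinases and frequently colorectal-mutated genes for lethal knock-downs and drug partners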 (primary screen)
# System: human COLO678 colorectal cancer cell line
# Knock-down reagent: siRNA pool against human genes
# Treatment: anchor drugs at fixed doses: BYL719 1 µM, cetuximab 5 µg/ml or trametinib 10 nM; DMSO vehicle for the siRNA-alone arm
# Read-out: 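Surviving cells scaled to non-targeting siRNA control as replicate means; robust z-score for knock-down alone; synergy scores weigh knock-down with drug against the predicted combined effect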
# Scale: robust z-score, siRNA alone: higher = more viable cells; strongly negative means essential; viability, siRNA alone: higher = more surviving cells; synergy score with BYL719: higher = stronger synergistic killing with drug
# Active means: 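Called essential (knock-down alone) if knock-down by itself drops cell number to a robust z-score under -3; all others no change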
# Calls: active = essential (knock-down alone); inactive = no change
# The whole screen tested 794 reagents; this is an unselected part. Over the whole deposit, 22 (2.8%) got an active call. 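Calls rest on knock-down alone only; drug synergy scores play no part in them.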 Viability is capped at 1. Not all columns of the deposit are shown. Not given: the amount of reagent, the time to read-out.
Gene,PubChem SID,"robust z-score, siRNA alone","viability, siRNA alone (fraction of control)",synergy score with BYL719,call
MAPK4 (GeneID 5596),SID152148838,-1.04,0.952,-0.0285,inactive
STK16 (GeneID 8576),SID152154415,0.473,1,-0.0664,inactive
ACVR2A (GeneID 92),SID152150723,0.473,1,-0.0164,inactive
MAP3K9 (GeneID 4293),SID152152652,-0.463,0.97,0.0196,inactive
GSK3B (GeneID 2932),SID56478468,0.473,1,-0.0189,inactive
PRKCE (GeneID 5581),SID135620860,0.473,1,-0.0919,inactive
PHKA2 (GeneID 5256),SID56479176,0.473,1,0.00616,inactive
HSPB8 (GeneID 26353),SID56478941,0.473,1,0.033,inactive
CDK15 (GeneID 65061),SID56478852,0.473,1,0.00199,inactive
NUAK2 (GeneID 81788),SID56479046,-1.47,0.938,0.0473,inactive
CDKN2C (GeneID 1031),SID56478606,0.473,1,0.111,inactive
PSKH1 (GeneID 5681),SID135620975,0.473,1,-0.0431,inactive
CAMK2B (GeneID 816),SID135620913,0.473,1,-0.0919,inactive
PPP2R1A (GeneID 5518),SID135621908,0.473,1,0.0304,inactive
NUP98 (GeneID 4928),SID152147776,0.473,1,0.087,inactive
PRKAG3 (GeneID 53632),SID56479232,-2.21,0.915,0.0886,inactive

Continued, starting with the last 3 of the part before.
Gene,PubChem SID,"robust z-score, siRNA alone","viability, siRNA alone (fraction of control)",synergy score with BYL719,call
PPP2R1A (GeneID 5518),SID135621908,0.473,1,0.0304,inactive
NUP98 (GeneID 4928),SID152147776,0.473,1,0.087,inactive
PRKAG3 (GeneID 53632),SID56479232,-2.21,0.915,0.0886,inactive
MAP2K1 (GeneID 5604),SID56478687,-0.763,0.961,-0.119,inactive
PIP5K1A (GeneID 8394),SID56478868,0.473,1,0.0876,inactive
HK2 (GeneID 3099),SID56479103,0.473,1,0.136,inactive
KMT2B (GeneID 9757),SID134314396,0.473,1,-0.0259,inactive
LTK (GeneID 4058),SID135620624,-0.366,0.973,-0.116,inactive
PIK3R3 (GeneID 8503),SID56479284,0.473,1,-0.0919,inactive
CDC73 (GeneID 79577),SID134319235,0.21,0.992,-0.012,inactive
PAK2 (GeneID 5062),SID135620709,-1.12,0.949,-0.138,inactive
FGFR3 (GeneID 2261),SID56478513,0.358,0.996,-0.0722,inactive
EGFR (GeneID 1956),SID135620613,-0.715,0.962,0.0717,inactive
RPS6KB2 (GeneID 6199),SID152153683,-2.35,0.91,-0.172,inactive
ABL1 (GeneID 25),SID135620610,0.473,1,-0.0919,inactive
DLG3 (GeneID 1741),SID135621778,0.473,1,0.0521,inactive
HK3 (GeneID 3101),SID56479104,0.473,1,-0.0919,inactive
CHKB (GeneID 1120),SID56479083,0.473,1,0.0437,inactive
CSNK1G1 (GeneID 53944),SID152156369,0.473,1,-0.0919,inactive
MVK (GeneID 4598),SID56479115,0.466,1,-0.0193,inactive
PIK3CG (GeneID 5294),SID56478988,-0.45,0.971,0.118,inactive
NTRK1 (GeneID 4914),SID152154627,0.473,1,-0.0919,inactive
TLK2 (GeneID 11011),SID56479057,0.473,1,-0.0919,inactive
TESK1 (GeneID 7016),SID152149255,0.311,0.995,-0.0619,inactive
PIM1 (GeneID 5292),SID56478736,0.473,1,0.0941,inactive
MAPK11 (GeneID 5600),SID56478748,0.473,1,0.126,inactive
GTF2H1 (GeneID 2965),SID56479243,-3.22,0.883,-0.00197,active
PRKAR1B (GeneID 5575),SID152149404,0.0581,0.987,0.03,inactive
GUCY2C (GeneID 2984),SID152148747,0.473,1,-0.0437,inactive
DAPK1 (GeneID 1612),SID135620826,0.331,0.995,0.0475,inactive
IRAK4 (GeneID 51135),SID134309837,0.473,1,-0.0275,inactive
PLK3 (GeneID 1263),SID56478615,0.473,1,-0.0409,inactive
SRPK1 (GeneID 6732),SID56478751,-0.678,0.963,-0.0302,inactive
INSRR (GeneID 3645),SID56479015,0.473,1,0.0829,inactive
MAP3K6 (GeneID 9064),SID56478746,0.27,0.994,-0.0977,inactive
CDKL4 (GeneID 344387),SID135624323,0.473,1,0.0412,inactive
PANK1 (GeneID 53354),SID56478765,0.473,1,-0.0919,inactive
